# Results deposited as PubChem BioAssay AID1259308 (NCATS, 2017)
# Screen: 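Candidate targets for better recombinant protein yield in mammalian cells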 (primary screen)
# Cells: human HEK293 embryonic kidney cells stably expressing firefly luciferase (HEK-CMV-Luc2-Hygro)
# Reagent: single siRNA against human genes, 0.8 pmol siRNA per well
# Duration: 72 h
# Measurement: 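Luciferase light (ONE-Glo) measured on one replicate plate set and viability (CellTiter-Glo) on the other, scaled to a negative control siRNA, with robust z-scores and luciferase per cell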
# Scale: total luciferase, z-score: higher = more reporter protein produced
# Active means: 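An siRNA counts as active if its total luciferase robust z-score exceeds 3; genes with two or more such siRNAs out of three were retested with fresh siRNAs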
# Calls: active = raised luciferase; inactive = no rise
# Shown is a random part of about 59,000 deposited reagents. About 1,510 of all reagents (2.6%) were called active. 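Calls use total luciferase alone and ignore viability, so some active siRNAs may act by altering cell number.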 The numbers tell different reagents against one gene apart. Not all columns of the deposit are shown.
Target gene,reagent,"total luciferase, z-score",activity call
AGAP1P1 (GeneID 126860),1,-1.34,inactive
AGAP1P1 (GeneID 126860),2,-0.333,inactive
AGAP1P1 (GeneID 126860),3,-0.0642,inactive
FAM171A1 (GeneID 221061),1,-0.0661,inactive
FAM171A1 (GeneID 221061),2,-0.317,inactive
FAM171A1 (GeneID 221061),3,1.14,inactive
IFITM1 (GeneID 8519),1,1.38,inactive
IFITM1 (GeneID 8519),2,-0.377,inactive
IFITM1 (GeneID 8519),3,-1.08,inactive
KRTAP20-1 (GeneID 337975),1,-1.21,inactive
KRTAP20-1 (GeneID 337975),2,0.627,inactive
KRTAP20-1 (GeneID 337975),3,-0.263,inactive
SLC15A1 (GeneID 6564),1,3.15,active
SLC15A1 (GeneID 6564),2,1.76,inactive
SLC15A1 (GeneID 6564),3,0.0925,inactive
SLC39A9 (GeneID 55334),1,0.0257,inactive
SLC39A9 (GeneID 55334),2,-1.17,inactive
SLC39A9 (GeneID 55334),3,0.782,inactive
CDK6 (GeneID 1021),1,-0.719,inactive
CDK6 (GeneID 1021),2,4.37,active
CDK6 (GeneID 1021),3,0.0693,inactive
WDR45B (GeneID 56270),1,-1.12,inactive
WDR45B (GeneID 56270),2,-0.463,inactive
WDR45B (GeneID 56270),3,-0.273,inactive
